# Assay results as given in the supplement of paper PMC8728848.
# The other results are listed elsewhere or left out.
# B1: FGF1 (Homo sapiens), P05230 (protein)
# chain: MAEGEITTFTALTEKFNLPPGNYKKPKLLYSNGGHFLRILPDGTVDGTRDRSDQHIQLQLSAESVGEVYIKSTETGQYLAMTDGLLYGSQTPNEECLFLERLEENHYNTYISKHAEKNWFVGLKKNGSCKRGPRTHYGQAILFLPLPASSED
# Assays:
# Assay in all cases: glycan array binding signal (z-score within array); higher = stronger binding
# Settings in all cases: glycan notation: IUPAC condensed, linker removed
# Fuc(a1-2)Gal = target: Fuc(a1-2)Gal
# How it was run: (§1)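 Negative Z-scores can be read as non-binding. The Z-score is calculated within each array and then averaged across arrays of one protein sequence at different concentrations or buffers and across linkers. Arrays, 3228 in all, were curated from the Consortium for Functional Glycomics database and kept only where the protein sequence was available.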
# Fuc(a1-2)Gal(b1-3)GalNAc = target: Fuc(a1-2)Gal(b1-3)GalNAc
# How it was run: as §1
# [1] = target: Fuc(a1-2)Gal(b1-3)GalNAc(a1-3)[Fuc(a1-2)]Gal(b1-4)Glc
# How it was run: as §1
# [2] = target: Fuc(a1-2)Gal(b1-3)GalNAc(a1-3)[Fuc(a1-2)]Gal(b1-4)GlcNAc
# How it was run: as §1
# [3] = target: Fuc(a1-2)Gal(b1-3)GalNAc(b1-3)Gal
# How it was run: as §1
# [4] = target: Fuc(a1-2)Gal(b1-3)GalNAc(b1-3)Gal(a1-4)Gal(b1-4)Glc
# How it was run: as §1
# [5] = target: Fuc(a1-2)Gal(b1-3)GalNAc(b1-4)[Neu5Ac(a2-3)]Gal(b1-4)Glc
# How it was run: as §1
# Fuc(a1-2)Gal(b1-3)GlcNAc = target: Fuc(a1-2)Gal(b1-3)GlcNAc
# How it was run: as §1
# [6] = target: Fuc(a1-2)Gal(b1-3)GlcNAc(b1-2)Man(a1-3)[Fuc(a1-2)Gal(b1-3)GlcNAc(b1-2)Man(a1-6)]Man(b1-4)GlcNAc(b1-4)GlcNAc
# How it was run: as §1
# [7] = target: Fuc(a1-2)Gal(b1-3)GlcNAc(b1-2)Man(a1-3)[Fuc(a1-2)Gal(b1-3)GlcNAc(b1-2)Man(a1-6)]Man(b1-4)GlcNAc(b1-4)[Fuc(a1-6)]GlcNAc
# How it was run: as §1
# [8] = target: Fuc(a1-2)Gal(b1-3)GlcNAc(b1-3)Gal(b1-4)Glc
# How it was run: as §1
# [9] = target: Fuc(a1-2)Gal(b1-3)GlcNAc(b1-3)GalNAc
# How it was run: as §1
# [10] = target: Fuc(a1-2)Gal(b1-3)GlcNAc(b1-3)[Fuc(a1-2)Gal(b1-3)GlcNAc(b1-6)]GalNAc
# How it was run: as §1
# [11] = target: Fuc(a1-2)Gal(b1-3)GlcNAc(b1-3)[Gal(b1-4)GlcNAc(b1-6)]Gal(b1-4)Glc
# How it was run: as §1
# [12] = target: Fuc(a1-2)Gal(b1-3)GlcNAc(b1-3)[Neu5Ac(a2-6)Gal(b1-4)GlcNAc(b1-6)]Gal(b1-4)Glc
# How it was run: as §1
# [13] = target: Fuc(a1-2)Gal(b1-3)GlcNAc6S
# How it was run: as §1
# [14] = target: Fuc(a1-2)Gal(b1-3)[Fuc(a1-4)]GlcNAc
# How it was run: as §1
# [15] = target: Fuc(a1-2)Gal(b1-3)[Fuc(a1-4)]GlcNAc(b1-2)Man(a1-3)[Fuc(a1-2)Gal(b1-3)[Fuc(a1-4)]GlcNAc(b1-2)Man(a1-3)]Man(b1-4)GlcNAc(b1-4)GlcNAc
# How it was run: as §1
# [16] = target: Fuc(a1-2)Gal(b1-3)[Fuc(a1-4)]GlcNAc(b1-2)Man(a1-3)[Fuc(a1-2)Gal(b1-3)[Fuc(a1-4)]GlcNAc(b1-2)Man(a1-6)]Man(b1-4)GlcNAc(b1-4)[Fuc(a1-6)]GlcNAc(b1-4)[Fuc(a1-6)]GlcNAc
# How it was run: as §1
# [17] = target: Fuc(a1-2)Gal(b1-3)[Fuc(a1-4)]GlcNAc(b1-3)[Fuc(a1-3)[Gal(b1-4)]GlcNAc(b1-6)]Gal(b1-4)Glc
# How it was run: as §1
# [18] = target: Fuc(a1-2)Gal(b1-3)[Fuc(a1-4)]GlcNAc(b1-3)[Gal(b1-4)GlcNAc(b1-6)]Gal(b1-4)Glc
# How it was run: as §1
# [19] = target: Fuc(a1-2)Gal(b1-4)Fuc(a1-3)]GlcNAc(b1-2)Man(a1-3)[Fuc(a1-2)Gal(b1-4)[Fuc(a1-3)]GlcNAc(b1-2)Man(a1-6)]Man(b1-4)GlcNAc(b1-4)GlcNAc
# How it was run: as §1
# Fuc(a1-2)Gal(b1-4)Glc = target: Fuc(a1-2)Gal(b1-4)Glc
# How it was run: as §1
# Fuc(a1-2)Gal(b1-4)Glc6S = target: Fuc(a1-2)Gal(b1-4)Glc6S
# How it was run: as §1
# Fuc(a1-2)Gal(b1-4)GlcNAc = target: Fuc(a1-2)Gal(b1-4)GlcNAc
# How it was run: as §1
# [20] = target: Fuc(a1-2)Gal(b1-4)GlcNAc(b1-2)Man
# How it was run: as §1
# [21] = target: Fuc(a1-2)Gal(b1-4)GlcNAc(b1-2)Man(a1-3)[Fuc(a1-2)Gal(b1-4)GlcNAc(b1-2)Man(a1-6)]Man(b1-4)GlcNAc(b1-4)GlcNAc
# How it was run: as §1
# [22] = target: Fuc(a1-2)Gal(b1-4)GlcNAc(b1-2)Man(a1-3)[Fuc(a1-2)Gal(b1-4)GlcNAc(b1-2)Man(a1-6)]Man(b1-4)GlcNAc(b1-4)[Fuc(a1-6)]GlcNAc
# How it was run: as §1
# [23] = target: Fuc(a1-2)Gal(b1-4)GlcNAc(b1-2)[Fuc(a1-2)Gal(b1-4)GlcNAc(b1-4)]Man(a1-3)[Fuc(a1-2)Gal(b1-4)GlcNAc(b1-2)Man(a1-6)]Man(b1-4)GlcNAc(b1-4)GlcNAc
# How it was run: as §1
# [24] = target: Fuc(a1-2)Gal(b1-4)GlcNAc(b1-3)Gal(b1-4)GlcNAc
# How it was run: as §1
# [25] = target: Fuc(a1-2)Gal(b1-4)GlcNAc(b1-3)Gal(b1-4)GlcNAc(b1-2)Man(a1-3)[Fuc(a1-2)Gal(b1-4)GlcNAc(b1-3)Gal(b1-4)GlcNAc(b1-2)Man(a1-6)]Man(b1-4)GlcNAc(b1-4)GlcNAc
# How it was run: as §1
# [26] = target: Fuc(a1-2)Gal(b1-4)GlcNAc(b1-3)Gal(b1-4)GlcNAc(b1-3)Gal(b1-4)GlcNAc
# How it was run: as §1
# [27] = target: Fuc(a1-2)Gal(b1-4)GlcNAc(b1-3)GalNAc
# How it was run: as §1
# [28] = target: Fuc(a1-2)Gal(b1-4)GlcNAc(b1-3)[Fuc(a1-2)Gal(b1-4)GlcNAc(b1-6)]GalNAc
# How it was run: as §1
# [29] = target: Fuc(a1-2)Gal(b1-4)GlcNAc(b1-3)[Fuc(a1-3)[Gal(b1-4)]GlcNAc(b1-6)]Gal(b1-4)Glc
# How it was run: as §1
# [30] = target: Fuc(a1-2)Gal(b1-4)GlcNAc(b1-6)GalNAc
# How it was run: as §1
# [31] = target: Fuc(a1-2)Gal(b1-4)GlcNAc6S
# How it was run: as §1
binder,measurement,setting,value
B1,glycan array binding signal (z-score),Fuc(a1-2)Gal,-0.095
same,glycan array binding signal (z-score),Fuc(a1-2)Gal(b1-3)GalNAc,-0.596
same,glycan array binding signal (z-score),[1],-0.681
same,glycan array binding signal (z-score),[2],-0.671
same,glycan array binding signal (z-score),[3],-0.809
same,glycan array binding signal (z-score),[4],-0.003
same,glycan array binding signal (z-score),[5],-0.534
same,glycan array binding signal (z-score),Fuc(a1-2)Gal(b1-3)GlcNAc,-0.252
same,glycan array binding signal (z-score),[6],1.63
same,glycan array binding signal (z-score),[7],0.366
same,glycan array binding signal (z-score),[8],-0.425
same,glycan array binding signal (z-score),[9],-0.037
same,glycan array binding signal (z-score),[10],0.161
same,glycan array binding signal (z-score),[11],-0.844
same,glycan array binding signal (z-score),[12],-0.799
same,glycan array binding signal (z-score),[13],0.132
same,glycan array binding signal (z-score),[14],-0.779
same,glycan array binding signal (z-score),[15],2.84
same,glycan array binding signal (z-score),[16],0.036
same,glycan array binding signal (z-score),[17],-0.831
same,glycan array binding signal (z-score),[18],-0.819
same,glycan array binding signal (z-score),[19],1.55
same,glycan array binding signal (z-score),Fuc(a1-2)Gal(b1-4)Glc,-0.358
same,glycan array binding signal (z-score),Fuc(a1-2)Gal(b1-4)Glc6S,0.286
same,glycan array binding signal (z-score),Fuc(a1-2)Gal(b1-4)GlcNAc,-0.395
same,glycan array binding signal (z-score),[20],0.825
same,glycan array binding signal (z-score),[21],0.241
same,glycan array binding signal (z-score),[22],0.646
same,glycan array binding signal (z-score),[23],0.062
same,glycan array binding signal (z-score),[24],-0.767
same,glycan array binding signal (z-score),[25],0.234
same,glycan array binding signal (z-score),[26],0.099
same,glycan array binding signal (z-score),[27],1.33
same,glycan array binding signal (z-score),[28],1.34
same,glycan array binding signal (z-score),[29],-0.372
same,glycan array binding signal (z-score),[30],0.959
same,glycan array binding signal (z-score),[31],0.936

# Some of the entries so far, with tabs:
binder	measurement	setting	value
B1	glycan array binding signal (z-score)	Fuc(a1-2)Gal	-0.095
same	glycan array binding signal (z-score)	Fuc(a1-2)Gal(b1-4)Glc	-0.358
same	glycan array binding signal (z-score)	[28]	1.34
